Experimental data: PubChem BioAssay AID1224830 (NIAID, 2016)
Shown is an unselected part of about 18,000 deposited reagents. About 2,900 of all reagents (16%) count as active. 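Calls are made per well; low scores hint the gene aids the LPS response, high scores that it dampens it.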 Repeated entries: four replicate wells of each siRNA pool. Reagent sequences are not shown.

Screen: 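Host factors that control LPS-induced TNF expression in human macrophages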 (primary screen)
Cells: human THP-1 monocytic leukaemia cells, TNF dual-luciferase reporter clone, PMA-differentiated to macrophage-like cells
Knock-down reagent: siRNA pool against human genes, 50 nM
Time to read-out: LPS for 4 h, given about 3 days after siRNA transfection
Treatment: bacterial LPS (TLR4 ligand), 10 ng/ml
Read-out: 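TNF firefly reporter luminescence divided by renilla, normalised to the plate median, then turned into a robust z-score for each replicate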
Reading the numbers: TNF reporter robust z-score: higher = stronger TNF reporter response to LPS
Rule for the call: 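a well is active when its z-score exceeds 2.8 or falls below -1.5; control wells carry no call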

gene	TNF reporter robust z-score	activity call
SPNS3 (GeneID 201305)	-1.28	inactive
SPNS3 (GeneID 201305)	-1.21	inactive
SPNS3 (GeneID 201305)	-1.25	inactive
SPNS3 (GeneID 201305)	-1.04	inactive
ARID1A (GeneID 8289)	-0.42	inactive
ARID1A (GeneID 8289)	-0.7	inactive
ARID1A (GeneID 8289)	-0.81	inactive
ARID1A (GeneID 8289)	-0.92	inactive
WDR13 (GeneID 64743)	-0.49	inactive
WDR13 (GeneID 64743)	-0.19	inactive
WDR13 (GeneID 64743)	-0.63	inactive
WDR13 (GeneID 64743)	-0.34	inactive
FARSA (GeneID 2193)	1.6	inactive
FARSA (GeneID 2193)	0.57	inactive
FARSA (GeneID 2193)	0.68	inactive
FARSA (GeneID 2193)	1.33	inactive
NMNAT1 (GeneID 64802)	-0.8	inactive
NMNAT1 (GeneID 64802)	-0.76	inactive
NMNAT1 (GeneID 64802)	-0.83	inactive
NMNAT1 (GeneID 64802)	-0.97	inactive
LRRC3 (GeneID 81543)	-0.83	inactive
LRRC3 (GeneID 81543)	-0.12	inactive
LRRC3 (GeneID 81543)	-0.62	inactive
LRRC3 (GeneID 81543)	-0.49	inactive
EIF4G1 (GeneID 1981)	-1.77	active
EIF4G1 (GeneID 1981)	-1.83	active
EIF4G1 (GeneID 1981)	-1.5	inactive
EIF4G1 (GeneID 1981)	-1.69	active
ZNF169 (GeneID 169841)	-0.05	inactive
ZNF169 (GeneID 169841)	3.36	active
ZNF169 (GeneID 169841)	1.77	inactive
ZNF169 (GeneID 169841)	0.34	inactive
MC2R (GeneID 4158)	-0.77	inactive
MC2R (GeneID 4158)	-0.74	inactive
MC2R (GeneID 4158)	-1.07	inactive
MC2R (GeneID 4158)	-0.75	inactive
LOC652591 (retired record) (GeneID 652591)	-0.38	inactive
LOC652591 (retired record) (GeneID 652591)	0.17	inactive
LOC652591 (retired record) (GeneID 652591)	1.29	inactive
LOC652591 (retired record) (GeneID 652591)	-0.29	inactive
MSX1 (GeneID 4487)	-0.35	inactive
MSX1 (GeneID 4487)	0.22	inactive
MSX1 (GeneID 4487)	0.12	inactive
MSX1 (GeneID 4487)	0.08	inactive
DNAJA2 (GeneID 10294)	0.18	inactive
DNAJA2 (GeneID 10294)	-0.39	inactive
DNAJA2 (GeneID 10294)	-0.29	inactive
DNAJA2 (GeneID 10294)	0	inactive
ZMYND12 (GeneID 84217)	0.05	inactive
ZMYND12 (GeneID 84217)	0.39	inactive
ZMYND12 (GeneID 84217)	-0.05	inactive
ZMYND12 (GeneID 84217)	0.25	inactive
CRABP1 (GeneID 1381)	-1.46	inactive
CRABP1 (GeneID 1381)	-0.78	inactive
CRABP1 (GeneID 1381)	-1.37	inactive
CRABP1 (GeneID 1381)	-1.1	inactive
RTN4RL1 (GeneID 146760)	0.21	inactive
RTN4RL1 (GeneID 146760)	-0.56	inactive
RTN4RL1 (GeneID 146760)	-0.49	inactive
RTN4RL1 (GeneID 146760)	-0.16	inactive
NPL (GeneID 80896)	-0.28	inactive
NPL (GeneID 80896)	0.31	inactive
NPL (GeneID 80896)	0.26	inactive
NPL (GeneID 80896)	0.23	inactive
APBA3 (GeneID 9546)	1.4	inactive
APBA3 (GeneID 9546)	1.7	inactive
APBA3 (GeneID 9546)	0.86	inactive
APBA3 (GeneID 9546)	2.81	active
NBPF11 (GeneID 200030)	1.6	inactive
NBPF11 (GeneID 200030)	1.43	inactive
NBPF11 (GeneID 200030)	0.34	inactive
NBPF11 (GeneID 200030)	1.53	inactive
ZDHHC15 (GeneID 158866)	-0.78	inactive
ZDHHC15 (GeneID 158866)	-0.88	inactive
ZDHHC15 (GeneID 158866)	-1.21	inactive
ZDHHC15 (GeneID 158866)	-0.11	inactive

Records listed above marked active (5):
gene	TNF reporter robust z-score	activity call
EIF4G1 (GeneID 1981)	-1.77	active
EIF4G1 (GeneID 1981)	-1.83	active
EIF4G1 (GeneID 1981)	-1.69	active
ZNF169 (GeneID 169841)	3.36	active
APBA3 (GeneID 9546)	2.81	active
